Patent US8614237B2, “Benzofuran-4,5-diones as selective peptide deformylase inhibitors” (Sloan-Kettering Institute for Cancer Research, priority 2009, dated 2013)
At least one structure is not confirmed: it was looked up by name or label, or the drawing left a doubt.

Key:
MMP-1 = MMP-1 %I 100uM
Protocol: (§1) Table printed on a drawing sheet, Figure 5
Head of the field: MMP-1 %I 100uM
(§2) Footnotes: -26 124 % inhibition
(§3) The patent's description of the figure: FIG. 5.
Where the first naming reader finds the target: head: MMP-1 %I 100uM

APN = APN %I 100uM
Protocol: as §1
Head of the field: APN %I 100uM
as §2, §3
Where the first naming reader finds the target: head: APN %I 100uM

| Structure (SMILES) | MMP-1 %I 100uM (MMP-1) [%I] | APN %I 100uM (APN) [%I] |
| --- | --- | --- |
| COc1ccc(C(=O)c2coc3c2C(=O)C(=O)C=C3)cc1 [SKC-BF-02, 3-(4-Methoxy-benzoyl)-benzofuran-4,5-dione] | 6 | 4 |
| COc1ccc(C(=O)c2coc3c2C(=O)C(=O)C(Br)=C3)cc1 [SKC-BF-06, 6-Bromo-3-(4-methoxybenzoyl)-benzofuran-4,5-dione] | 26 | 21 |
| COc1ccc(C(=O)c2coc3c2C(=O)C(=O)C=C3Br)cc1 [SKC-BF-07, 7-Bromo-3-(4-methoxybenzoyl)-benzofuran-4,5-dione] | 8 |  |
| COc1ccc(C(=O)c2coc3c2C(=O)C(=O)C(Br)=C3Br)cc1 [SKC-BF-08, 6,7-Dibromo-3-(4-methoxybenzoyl)-benzofuran-4,5-dione] | 23 |  |
